# Data as given in PubChem BioAssay AID602196 (INSERM, 2012).
# Screen: 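Modifiers of cisplatin sensitivity in A549 cells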
# Cells: human A549 lung cancer cells
# Reagent: siRNA pair against human genes
# Time to read-out: 48 h transfection before cisplatin; time from cisplatin to read-out not stated
# Treatment: cisplatin at a dose killing half of control-siRNA cells; exact dose and duration not given
# Detection: 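Shift in cisplatin death relative to control siRNA, from -50 (all cells die) to +50 (no cells die); siRNAs harmful on their own scored 0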
# Scale: two-siRNA summed score (-2 to +2): higher = both siRNAs protect from cisplatin killing; -2 means both sensitise; mean protection from cisplatin (shift in death) and protection from cisplatin (shift in death), siRNA C and protection from cisplatin (shift in death), siRNA D: higher = protection from cisplatin killing
# Active means: 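siRNAs harmful alone (LDH or WST-1) get 0; others get +1 for less and -1 for more cisplatin killing; genes are active when the two siRNAs give the same sign, summing to ±2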
# Calls: active = both siRNAs shift cisplatin killing the same way; inactive = no consistent shift, or siRNA harmful alone
# Shown is a random part of about 23,000 reagents. Of all reagents, 455 (2%) were called active. 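Active includes both protection and sensitisation; some change values fall well beyond the stated -50 to +50 range.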 Entries without a mark were called inactive. Not given: the amount of reagent.
gene,two-siRNA summed score (-2 to +2),mean protection from cisplatin (shift in death) (%),"protection from cisplatin (shift in death), siRNA C (%)","protection from cisplatin (shift in death), siRNA D (%)"
ZNF334,0,7.2,11.8,2.7
LOC402232,1,9.7,-1.7,21.1
LOC343505,1,18.9,15.2,22.6
NPR2,0,-6.8,-6.9,-6.7
LOC441120,0,1,13,-11.1
MYH13,1,16.5,7.3,25.7
CDCP1,1,11.9,18.9,4.9
LOC442339,0,10,9.3,10.7
DKK2,-1,-15.5,-14.9,-16.1
DTD1,0,-11.6,-8.4,-14.8
LOC441580,0,5.3,-2.1,12.7
TGM3,0,7.5,-8.7,23.8
AP1AR,0,5.6,6,5.2
RCAN3,0,5,18.6,-8.6
XPR1,0,1.5,14.4,-11.5
LOC392670,0,7.8,4.7,10.8
LOC441168,0,13.2,19.3,7
FLJ39117,0,8,6.1,9.9
LINC00923,0,7.2,8.3,6.1
UGT2B17,1,9.2,8.4,10
UEVLD,1,11.3,7.3,15.3

9 successive records from above, quoted:
gene,two-siRNA summed score (-2 to +2),mean protection from cisplatin (shift in death) (%),"protection from cisplatin (shift in death), siRNA C (%)","protection from cisplatin (shift in death), siRNA D (%)"
CDCP1,1,11.9,18.9,4.9
LOC442339,0,10,9.3,10.7
DKK2,-1,-15.5,-14.9,-16.1
DTD1,0,-11.6,-8.4,-14.8
LOC441580,0,5.3,-2.1,12.7
TGM3,0,7.5,-8.7,23.8
AP1AR,0,5.6,6,5.2
RCAN3,0,5,18.6,-8.6
XPR1,0,1.5,14.4,-11.5

Continued:
gene,two-siRNA summed score (-2 to +2),mean protection from cisplatin (shift in death) (%),"protection from cisplatin (shift in death), siRNA C (%)","protection from cisplatin (shift in death), siRNA D (%)"
ELOB,0,5.1,1.6,8.5
PTPN7,-2 (active),-18.1,-18,-18.2
SLC6A8,1,9.8,20.7,-1.2
DHRS7B,0,-9.9,-14.7,-5.1
PTCD2,0,9.6,9.3,10
LOC401383,1,12.3,24,0.5
XXYLT1,-1,-16.5,-28,-5
NOLC1,-1,-18.8,-24,-13.7
CSNK2A2,0,-10.7,-24.3,2.8
CLDN5,0,7.1,5.2,9.1
ZP3,0,6.5,-12.3,25.3
CTSS,0,1.8,3.2,0.3
PGLYRP3,0,4.9,9,0.7
LOC285770,0,3.2,7,-0.7
DIAPH1,0,12.9,26.1,-0.4
CACNA1E,-1,-15.9,-1.3,-30.5
FARSB,1,10.2,-1.6,22.1
CHRNB2,1,9.1,15.3,3
TNNT3,0,-4.7,2.5,-11.9
AHI1,0,1.6,5.1,-1.9
OLFM3,0,12.4,10.8,14
TRAPPC8,1,14.5,23.7,5.2
OSGIN1,0,3.7,-1.9,9.3
ATG9B,0,-2,-18.3,14.3
NONO,-1,-15.2,-27.2,-3.1
LOC392275,0,17.1,31.2,3.1
MAEA,0,-10.4,3.4,-24.1
RNF123,0,-6.6,-7.1,-6.2
TMC7,0,1.9,3.5,0.2
LINC00115,0,6.5,8.2,4.8
MUS81,0,-9.9,-15.7,-4.1
FSCN3,0,8.1,18.7,-2.4
LOC400505,0,4.5,7.7,1.3
KCNA7,-1,-13.2,-13.5,-12.9
COX18,0,12.1,9.5,14.7
LY6G6E,0,-1.5,-1.5,-1.6
